This assay can be described thus: qHTS Assay for Modulators of Lamin A Splicing. The note with it: HeLa LMNA splicing GFP/RFP minigene ratio, 48 h. The procedure, abridged:
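S3 HeLa stable clones carrying a lamin A-EGFP splicing minigene plus DsRed2 were seeded at 600 cells/well in Opti-MEM with 2% FBS, pin-dosed and incubated 48 h at 37°C. Acumen cytometry (488 nm) gave the GFP/RFP total-intensity ratio.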

Setting [1] is: measured here: GFP splicing reporter channel.
Setting [2] is: measured here: RFP viability control channel.

Some of the results follow. Further columns of the screen follow, without active or inactive calls. The list favours compounds with an active or inconclusive main result. The note in brackets gives the kind of curve behind each potency; many fits are weak.

The record followed here is PubChem BioAssay AID1487 (National Center for Advancing Translational Sciences (NCATS), 2009).

For `COc1ccccc1C(=O)O/N=C(/c1ccncc1)c1ccc([N+](=O)[O-])cc1`, the AC50 under setting [1] was 14.1 µM [rising, partial curve].
For `CCOc1ccccc1C(=O)N[C@H](C(=O)NCc1ccccc1)C(C)C`, the AC50 under setting [2] was 2.82 µM [falling, single point].
Regarding `Cc1cccc(C(=O)NC(=S)NCc2cccnc2)c1`, the AC50 under setting [1] was 4.47 µM [rising, partial curve, poor fit] and the AC50 under setting [2] was 0.2 µM [rising, full curve, poor fit].
As for `C=CCc1c(C)nc(SC)nc1Nc1ccc(C(C)=O)cc1`, the AC50 under setting [2] is 11.2 µM [rising, single point].
With `O=C(Nc1ccc2c(c1)CCCN2C(=O)c1cccs1)c1ccccc1C(F)(F)F`, the AC50 runs as follows: under setting [1], 0.0224 µM [falling, full curve, poor fit]; under setting [2], 10 µM [rising, partial curve].
For `NS(=O)(=O)c1cccc(NC(=O)CSc2ncc(C(F)(F)F)cc2Cl)c1`, the AC50 under setting [2] is 31.6 µM [rising, single point].
Consider `Oc1c(C(c2ccccc2)N2CCc3ccccc3C2)sc2ncnn12` (centres undefined), for which the concentration at half-maximal activity (AC50) reads like this: under setting [1], 15.8 µM [rising, partial curve, poor fit]; under setting [2], 11.2 µM [rising, partial curve].
In the case of `COc1ccc(NC(=O)CSc2ccc(NC(C)=O)cc2)cc1S(=O)(=O)N1CCCCC1`, the AC50 under setting [2] was 35.5 µM [rising, single point].
On to `NC(=O)c1nsc(C(=O)N(c2cccc(F)c2)C(C(=O)NCC2CCCO2)c2cccs2)c1N` (centres undefined), for which, under setting [2], the AC50 is 35.5 µM [falling, single point].
`CCOC(=O)c1cccc(NC(=O)CCNS(=O)(=O)c2ccc3c(c2)CCN3C(=O)CC)c1`: the AC50 reads like this: under setting [1], 12.6 µM [rising, single point]; under setting [2], 17.8 µM [rising, single point].
For the compound `Cc1nc([N+](=O)[O-])c(Br)n1CC(=O)c1ccc(Br)cc1`, the AC50 under setting [1] is 35.5 µM [falling, single point].
Turning to `CCCCCCn1c(COc2ccccc2F)nnc1SCC(=O)c1c(N)n(C)c(=O)n(C)c1=O`, the AC50 under setting [2] is 6.31 µM [falling, partial curve, poor fit].
The same measure, in the same setting: under `Nc1nc2c(F)c(F)c(F)cc2s1` stands 0.562 µM [falling, partial curve, poor fit].
For `CC12CC(NC(=O)N1Cc1ccccc1)c1ccccc1O2` (centres undefined), the AC50 under setting [1] was 12.6 µM [rising, single point] and the AC50 under setting [2] is 15.8 µM [rising, single point].
`C/C(=N\NC(=O)c1cc(-c2cccnc2)nc2ccccc12)c1ccc(O)cc1O`: the AC50 under setting [1] was 4.47 µM [rising, full curve, poor fit] and the AC50 under setting [2] was 7.08 µM [rising, partial curve].
Take `COC(=O)Oc1ccc(/C=N/NC(=O)CSCc2ccc(Cl)cc2)cc1OC`: the AC50 under setting [2] is 35.5 µM [rising, single point].
Turning to `CCOC(=O)c1c(-c2ccccc2)csc1NC(=O)CSc1nnnn1C`, the AC50 by setting is: under setting [1], 35.5 µM [rising, single point]; under setting [2], 35.5 µM [rising, single point].
With `COc1cc(/C=N\Nc2nc3ccccc3o2)cc(OC)c1OC`, under setting [2], the AC50 is 11.2 µM [rising, partial curve].
`COCCCn1cnc2c(c1=O)c1nc3ccccc3nc1n2CCc1ccccc1`: under setting [2], the AC50 was 2.82 µM [rising, partial curve].
As to `C[C@H]1c2cccc(O)c2C(O)=C2C(=O)[C@]3(O)C(O)=C(C(N)=O)C(=O)C(N(C)C)[C@@H]3[C@@H](O)C21` (some centres undefined), the AC50 under setting [1] was 5.62 µM [falling, partial curve, poor fit] and the AC50 under setting [2] was 0.631 µM [falling, partial curve, poor fit].
For `COc1ccccc1N(C)S(=O)(=O)c1ccc(C(=O)OCC(=O)N2CCCCCC2)cc1`, under setting [2], the AC50 was 0.00447 µM [falling, full curve, poor fit].
Same read-out and setting: under `Cc1ccccc1OCC(=O)Nc1ccc2c(c1)n(C)c(=O)n2C` stands 10 µM [rising, partial curve]; under `COc1cc(Cl)c(NS(=O)(=O)c2cc3[nH]c(=O)c(=O)[nH]c3cc2C)c(OC)c1`, 0.02 µM [rising, full curve, poor fit]; under `CC(C)NCC(O)COc1ccc(CC(N)=O)cc1` (centres undefined), 0.00501 µM [falling, full curve, poor fit].
Consider `CCn1ncc(C2=NOC(C(=O)NCc3ccc(Cl)cc3)C2)c1C` (centres undefined), for which the AC50 under setting [1] is 3.98 µM [rising, full curve, poor fit] and the AC50 under setting [2] is 14.1 µM [rising, single point].
Turning to `CO/N=C/c1ccc(N2CCN(C(=O)c3cccc(C(F)(F)F)c3)CC2)c([N+](=O)[O-])c1`, the AC50 under setting [2] is 8.91 µM [rising, partial curve].
In the case of `N#CC1=C(N)Oc2[nH]c(=S)[nH]c(=O)c2C12C(=O)Nc1ccccc12` (centres undefined), the AC50 under setting [1] is 1 µM [falling, partial curve].
`O=C(COC(=O)c1ccccc1C(=O)c1ccc(Cl)cc1)NCc1ccccc1`: the AC50 under setting [2] was 22.4 µM [rising, single point].
Regarding `CN(C(=O)COc1ccccc1C(=O)NCCOc1ccccc1)c1ccccc1`, under setting [1], the AC50 was 3.55 µM [falling, partial curve].
In the case of `O=c1c(Cl)c(N/N=C/c2ccc(Cl)cc2)cnn1-c1ccccc1`, the AC50 under setting [2] is 12.6 µM [rising, partial curve].
As to `CCOc1ccc(S(=O)(=O)Nc2cccc(N(C)S(C)(=O)=O)c2)cc1`, under setting [2], the AC50 was 10 µM [rising, partial curve].
Consider `CCCCCCSC1=C(C#N)C(c2ccc(O)cc2)CC(=O)N1` (centres undefined), for which the AC50 under setting [2] is 35.5 µM [rising, single point].
The same measure, in the same setting: under `OCCCCNCc1ccc(OCc2ccc(Cl)cc2)cc1` stands 35.5 µM [rising, single point].
As to `Cc1ccc2sc(N3CCN(C(=O)C4COc5ccccc5O4)CC3)nc2c1C` (centres undefined), the AC50 under setting [1] was 0.794 µM [rising, full curve, poor fit].
Regarding `Cc1c(C(=O)N(C)C)sc(NC(=O)c2cccc([N+](=O)[O-])c2)c1C#N`, the AC50 runs as follows: under setting [1], 12.6 µM [rising, single point]; under setting [2], 12.6 µM [rising, single point].
Turning to `Cn1c(=O)n(CCN2CCOCC2)c(=O)c2c1nc1n2CCN1c1ccc(Oc2ccccc2)cc1`, the AC50 under setting [1] was 10 µM [rising, single point].
`Cc1cc(C)c(NS(=O)(=O)c2ccc(NC(=O)c3cccs3)cc2)c(C)c1`: the AC50 under setting [2] is 15.8 µM [rising, partial curve, poor fit].
Still for that read-out and setting: under `COc1ccc(CCNC(=O)c2ccc(CS(=O)(=O)c3ccc(C)cc3)o2)cc1OC` stands 17.8 µM [rising, single point]; under `COC(=O)c1ccc(C(=O)OC)c(NC(=O)CSCc2ccc(Cl)cc2)c1`, 12.6 µM [rising, single point].
Consider `Cc1ccc(S(=O)(=O)N2CCCSCC2)cc1`, for which the AC50 by setting is: under setting [1], 0.0141 µM [rising, full curve, poor fit]; under setting [2], 11.2 µM [rising, partial curve, poor fit].
For `O=C(/C=C\c1ccco1)Oc1cccc2cccnc12`, the AC50 under setting [1] was 25.1 µM [falling, single point] and the AC50 under setting [2] is 3.98 µM [rising, single point].
On to `COc1ccccc1C1C=C(c2ccc(C)cc2)Nc2nnnn21` (centres undefined), for which the AC50 under setting [2] was 35.5 µM [rising, single point].
For `CCCCN(C)C(=O)Cc1c(OC)ccc2cc(Br)ccc12`, the AC50 by setting is: under setting [1], 17.8 µM [rising, single point]; under setting [2], 15.8 µM [rising, single point].
Consider `COc1ccc(-n2c(C)c([N+](=O)[O-])c3ccc(O)c(CN(C)C)c32)cc1`, for which the AC50 reads like this: under setting [1], 7.08 µM [falling, partial curve]; under setting [2], 2 µM [falling, partial curve].
For the compound `CCOC(=O)[C@H]1O[C@@H]1C(=O)N[C@@H](CC(C)C)C(=O)NCCC(C)C`, under setting [2], the AC50 was 0.447 µM [rising, partial curve].
`N#Cc1c(Nc2ccccc2)sc(C(=O)c2ccc(F)cc2)c1N`: the AC50 was 14.1 µM [rising, single point] under setting [1] and 11.2 µM [rising, partial curve] under setting [2].
`COc1ccc(-c2csc(N(CCCN3CCOCC3)C(=O)c3ccco3)n2)cc1`: the AC50 is 31.6 µM [rising, single point] under setting [1] and 35.5 µM [rising, single point] under setting [2].
On to `COc1ccc(C(=O)C(CN2CCCC2)c2ccccc2)cc1` (centres undefined), for which the AC50 under setting [2] is 5.62 µM [rising, single point].
Same read-out and setting: under `CCc1cc(-c2n[nH]c(=S)n2C(C)c2ccccc2)cs1` (centres undefined) stands 11.2 µM [rising, single point].
Regarding `Cc1ccc2cc(CN(CC3CCCO3)C(=S)NCc3ccco3)c(=O)[nH]c2c1` (centres undefined), the AC50 was 0.794 µM [falling, full curve, poor fit] under setting [1] and 1 µM [falling, full curve, poor fit] under setting [2].
In the case of `Cc1cccc(-n2ncc3c(N(CCO)CCO)ncnc32)c1`, under setting [2], the AC50 was 35.5 µM [rising, single point].
With `COc1ccccc1CNC(=O)c1c2c(nc3ccccc13)C(=O)N(C1CCCCC1)C2`, under setting [1], the AC50 was 0.01 µM [rising, full curve, poor fit].
Take `C=CCn1c(=O)[nH]c2cc(C(=O)N3CCN(c4cccc(Cl)c4)CC3)ccc2c1=O`: the AC50 runs as follows: under setting [1], 14.1 µM [rising, partial curve]; under setting [2], 20 µM [rising, partial curve].
As for `O=C(Nc1nnc(SCc2cccc3ccccc23)s1)C1COc2ccccc2O1` (centres undefined), the AC50 was 11.2 µM [rising, single point] under setting [1] and 12.6 µM [rising, partial curve] under setting [2].
For `O=C(COc1ccc([N+](=O)[O-])cc1)N(Cc1ccccc1)Cc1ccccc1`, the AC50 under setting [2] was 25.1 µM [rising, single point].
